Laboratory results published in paper PMC10011449.
No constants are given. Whether binding was seen depends on the method and setting. In cells and extracts the contact can be indirect. Some results given as binding are weak or reduced against the parent protein; the word gives no strength. Values belong to the substance of their own block, whether it stands above or below them.

Protein sequences, listed by entry. Tags and fused reporters are not part of them.
UniProt P31977: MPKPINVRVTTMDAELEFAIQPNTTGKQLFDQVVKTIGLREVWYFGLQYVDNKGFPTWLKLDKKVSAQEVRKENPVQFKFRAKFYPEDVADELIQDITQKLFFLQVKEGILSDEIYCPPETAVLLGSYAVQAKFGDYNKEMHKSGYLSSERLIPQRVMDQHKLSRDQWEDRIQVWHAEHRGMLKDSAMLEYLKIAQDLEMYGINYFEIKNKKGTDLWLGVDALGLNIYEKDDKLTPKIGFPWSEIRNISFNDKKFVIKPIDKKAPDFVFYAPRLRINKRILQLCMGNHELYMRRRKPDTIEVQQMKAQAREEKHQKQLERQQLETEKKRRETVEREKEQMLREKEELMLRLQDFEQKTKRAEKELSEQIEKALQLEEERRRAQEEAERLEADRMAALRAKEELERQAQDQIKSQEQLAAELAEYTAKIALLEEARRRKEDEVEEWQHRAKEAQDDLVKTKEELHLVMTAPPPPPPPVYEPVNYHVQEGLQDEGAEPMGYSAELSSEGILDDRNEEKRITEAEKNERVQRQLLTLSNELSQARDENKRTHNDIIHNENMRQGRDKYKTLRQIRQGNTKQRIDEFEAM
UniProt P19634: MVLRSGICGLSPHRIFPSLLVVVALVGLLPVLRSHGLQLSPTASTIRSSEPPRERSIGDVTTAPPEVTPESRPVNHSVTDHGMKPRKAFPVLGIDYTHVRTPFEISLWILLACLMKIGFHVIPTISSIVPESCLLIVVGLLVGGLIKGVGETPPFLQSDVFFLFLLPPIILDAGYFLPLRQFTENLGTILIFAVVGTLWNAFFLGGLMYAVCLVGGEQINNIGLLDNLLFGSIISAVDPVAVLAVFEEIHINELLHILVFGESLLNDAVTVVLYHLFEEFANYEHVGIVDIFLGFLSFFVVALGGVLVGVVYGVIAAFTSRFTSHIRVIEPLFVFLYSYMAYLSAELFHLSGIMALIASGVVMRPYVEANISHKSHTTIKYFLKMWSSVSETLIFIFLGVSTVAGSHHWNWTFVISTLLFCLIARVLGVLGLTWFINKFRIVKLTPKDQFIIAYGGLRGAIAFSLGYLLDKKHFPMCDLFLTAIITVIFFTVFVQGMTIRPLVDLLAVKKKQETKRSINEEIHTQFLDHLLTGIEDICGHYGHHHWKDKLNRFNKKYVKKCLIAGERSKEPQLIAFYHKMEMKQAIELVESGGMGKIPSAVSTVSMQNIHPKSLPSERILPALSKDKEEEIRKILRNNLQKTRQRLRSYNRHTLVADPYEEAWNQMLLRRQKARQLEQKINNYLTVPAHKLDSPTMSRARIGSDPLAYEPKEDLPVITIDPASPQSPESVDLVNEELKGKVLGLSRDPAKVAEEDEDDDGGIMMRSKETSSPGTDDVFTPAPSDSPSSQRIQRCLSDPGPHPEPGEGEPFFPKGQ
UniProt P26431: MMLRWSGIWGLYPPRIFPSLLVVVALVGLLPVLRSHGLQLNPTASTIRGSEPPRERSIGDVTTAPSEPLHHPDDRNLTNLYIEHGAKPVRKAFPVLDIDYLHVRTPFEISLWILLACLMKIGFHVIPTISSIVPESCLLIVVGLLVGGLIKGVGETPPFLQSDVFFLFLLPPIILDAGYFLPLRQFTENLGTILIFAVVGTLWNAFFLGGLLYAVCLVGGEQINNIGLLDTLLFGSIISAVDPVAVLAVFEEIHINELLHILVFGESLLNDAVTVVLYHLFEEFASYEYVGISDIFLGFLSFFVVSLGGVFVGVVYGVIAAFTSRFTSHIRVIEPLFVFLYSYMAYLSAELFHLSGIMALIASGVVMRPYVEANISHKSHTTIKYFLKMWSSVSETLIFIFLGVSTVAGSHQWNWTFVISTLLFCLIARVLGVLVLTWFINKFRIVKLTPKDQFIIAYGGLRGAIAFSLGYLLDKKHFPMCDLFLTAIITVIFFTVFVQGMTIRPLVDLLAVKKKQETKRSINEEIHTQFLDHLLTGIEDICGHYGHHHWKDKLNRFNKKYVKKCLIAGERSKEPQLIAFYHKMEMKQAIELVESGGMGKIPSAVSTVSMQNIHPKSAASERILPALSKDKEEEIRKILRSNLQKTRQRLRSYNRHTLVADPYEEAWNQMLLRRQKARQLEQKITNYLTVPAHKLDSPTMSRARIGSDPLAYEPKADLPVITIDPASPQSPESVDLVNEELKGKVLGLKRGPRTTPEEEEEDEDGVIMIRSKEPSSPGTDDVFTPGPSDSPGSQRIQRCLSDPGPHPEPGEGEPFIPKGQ

Assays:
[1] = target: phosphorylated ezrin (p-ezrin) (rat (endogenous in rat PASMCs)) (UniProt P31977); test: co-IP; anti-p-ezrin immunoprecipitation (reverse pull-down) from lysates of rat PASMCs infected with AdNHE1, AdMut or AdGFP; blots for HA and SMA; IgG as control
[2] = target: phosphorylated ezrin (p-ezrin) (rat (endogenous in rat PASMCs)) (UniProt P31977); test: co-IP; anti-p-ezrin immunoprecipitation from lysates of rat PASMCs, hypoxic (4% O2, 24 h) or control; blots for NHE1 and SMA; IgG as control
[3] = target: phosphorylated ezrin (p-ezrin) (rat (endogenous in rat PASMCs)) (UniProt P31977); test: co-IP; anti-p-ezrin immunoprecipitation from lysates of rat PASMCs kept under control conditions; blot for NHE1; IgG as control
[4] = target: HA-tagged wild-type human NHE1 (AdNHE1) (human) (UniProt P19634); test: co-IP; anti-HA immunoprecipitation (HA-tagged NHE1 as bait) from lysates of rat PASMCs infected with AdNHE1 or AdMut; blots for p-ezrin and SMA; IgG as control

binding [1]: binds
Substance: HA-tagged wild-type human NHE1 (AdNHE1) (from UniProt P19634 1-815)

binding [2]: binds
binding [3]: binds weakly
Substance: Na+/H+ exchanger isoform 1 (NHE1), native, in rat pulmonary arterial smooth muscle cells (from UniProt P26431 1-820)

binding [4]: binds
Substance: phosphorylated ezrin (p-ezrin) (from UniProt P31977 1-586)
